Reference: publication PMC10163288
Some of the results follow.

B1: il10ra_site1_normal_mot_fda5df8c19bda1ddfcc41857df859eb0_0001_1_000000120_0001_35_49_H_._HEEHE_0280_af2_0001_0000500008_0000001_0_af2pred_0001 (protein)
chain: SKEEATEKSIRAIAERAGVPSVEVTIENGEWHVTFSGDDERARYAAFTIEALARLLNLEVNLELK
B2: il10ra_site1_sap_16_mot_HHH_b1_06914_000000280_0001_1_18_H_._HHH_b1_05069_af2_0001_0000200005_0000001_0_0001 (protein)
chain: SSSSDEADEVFRLIEKAVELSRKDPEEAEEVLKRAEKIAEELGNRIMRWVIEFLERHIEELSSSS
B3: il10ra_site1_normal_mot_HHH_b1_06837_000000150_0001_20_37_H_._HHH_b1_05845_0001_0000600050_0000001_0 (protein)
chain: SSSSTEEIYKLLREASELLQEGNPEEAEKLLEEAERLAEELGNEVLLATIRALLRLIQRFLSSSS
B4: il10ra_site1_sap_19_mot_HHH_b1_03763_000000209_0001_22_38_H_._HHH_b2_03541_0001_0000200007_0000001_0_0001 (protein)
chain: SSSSSNEVAELLFKALRLLAEGNPEEAEEVAREAKELAEELGDEELLRYVEILKHFIEAHSSSSS
B5: il10ra_site1_normal_mot_HHH_b2_02537_000000065_0001_1_20_H_._HHH_b2_04376_0001_0000100013_0000001_0 (protein)
chain: SSSDEAFEIVRRAIERAAELARQGNPEEAEEVLERAREVAEENNNQALRFSLEQLLRAIEESSSS
B6: il10ra_site1_normal_mot_HHH_b2_04945_000000076_0001_1_19_H_._HHH_b2_05056_0001_0000400022_0000001_0 (protein)
chain: SSSSTDELFEEVRRIIEEAVRLYREGNPEEARRLVEEALELAEENNNFALVFALEHLLRDLSSSS
B7: il10ra_site1_sap_11_mot_HHH_b1_00456_000000263_0001_1_17_H_._HHH_b2_06141_0001_0000200005_0000001_0_0001_af2pred_0001 (protein)
chain: SSSSDIAERLVELALEAARLAAERGDPEAVRRALEQAEHLAKLNNNPELEEEVKELEEELSSSSS
B8: il10ra_site1_sap_27_mot_HHH_b2_07569_000000265_0001_38_56_H_._HHH_b1_08691_0001_0000200011_0000001_0_0001_af2pred_0001 (protein)
chain: SSSSDHNEEAIKRLLKAAKLLEDPERAKLAVRFALALARALNNEELEEEIRKLLEELEEGSSSSS
B9: il10ra_site1_sap_21_mot_HHH_b1_00682_000000211_0001_1_20_H_._HHH_b2_01629_0001_0000300032_0000001_0_0001_1 (protein)
chain: SSSSSRELYELSREVARLDHEGDFEEAERVVREAIELAEEENNWNMLFNLRHMLRVIEEELSSSS
B10: il10ra_site1_sap_13_mot_HHH_b1_04693_000000238_0001_19_36_H_._HHH_b1_07804_0001_0000300023_0000001_0_0001 (protein)
chain: SSSSDEELEELFRLLREAIELHSEGNEEEAEKVLEEVIELARELGNRLMLLQAEFALRMISSSSS
B11: il10ra_site1_sap_25_mot_HHH_b1_03260_000000175_0001_42_57_H_._HHH_b2_05910_0001_0000300016_0000002_0_0001 (protein)
chain: SSSSDEEVEELEEEAEEQLERLLREGNHQEAFRLLEEVARRLLELGDPEAVRRLIHFFIRISSSS
B12: il10ra_site1_normal_mot_HHH_b2_07569_000000265_0001_38_56_H_._HHH_b1_00069_af2_0001_0000200023_0000001_0 (protein)
chain: SSSSDEEERLKELEEELEEAVRRGDEQLVLELAIEALRLAFRLSDDEVVQEIWELVKKAFSSSSS
B13: il10ra_site1_normal_mot_HHH_b2_07579_000000275_0001_1_19_H_._HHH_b2_01201_0001_0000100002_0000001_1_af2pred_0001 (protein)
chain: SSSSSSSEVEEILRLQEEALHIEDPEEAREVLEEAIELAEKAGDEVIVKILRRLLKLLSSSSSSS
B14: il10ra_site1_sap_12_mot_HHH_b1_06256_000000091_0001_42_58_H_._HHH_b1_03525_0001_0000200007_0000001_0_0001_af2pred_0001 (protein)
chain: SSSSTSEEDFKLALRLARQLAEAENDEEAKEKIEELEEEYREKKDPQILHELIRLIKELANSSSS
B15: il10ra_site1_sap_26_mot_HHH_b1_03531_000000273_0001_41_54_H_._HHH_b1_06918_0001_0000200023_0000001_0_0001_af2pred_0001 (protein)
chain: SSSSDAERSARILALFAERALKEGDEEAVELTIKLLKSLAEATNDPEIEELARELEELLGSSSSS
B16: il10ra_site1_sap_25_mot_HHH_b1_01879_000000050_0001_1_18_H_._HHH_b1_03473_af2_0001_0000100001_0000001_1_0001_af2pred_0001 (protein)
chain: SSSSSEDEERIEELIERIEELLKEGDEEKVLKLLLELAQLALKTEDEEATRFVLEVAELLSSSSS
B17: il10ra_site1_normal_mot_HHH_b2_08144_af2_000000046_0001_38_52_H_._HHH_b1_06242_af2_0001_0000400022_0000001_0 (protein)
chain: SSSSDEMEQLFKLLREIAELLHDGDPEEARELIEEAKELAEELNNELARWQLEFLEREAKSSSSS
B18: il10ra_site1_sap_20_mot_HHH_b1_05083_af2_000000148_0001_42_57_H_._HHH_b1_04853_af2_0001_0000100004_0000001_0_0001 (protein)
chain: SSSSNESYRLSREANEELNEAWREGDDELLREIVKEVERLLEELNDPLALFVFRSVVEILRSSSS
B19: il10ra_site1_normal_mot_HEEHE_1605_000000211_0001_40_56_H_._6a4d44608330000f36d08f4dbbd7f703_0001_0001_0000500016_0000001_0 (protein)
chain: SVEEKLKELLEELGVPPHEIEVILFALERLAEQNGDPERAVRILSWSLQQAGNPELAEAVERALK
B20: il10ra_site1_normal_mot_e1dd4851c59bc1cdde016f988f6856bd_0001_1_000000200_0001_16_31_H_._HEEHE_1797_0001_0000300012_0000001_0_af2pred_0001 (protein)
chain: SDEERFKLAVEAIAELAGVPSVEVEEENGEITVTVEGTDEAVRRAELMVRFVARAAGLRVTVETR
B21: il10ra_site1_normal_mot_HHH_b2_03425_000000200_0001_22_39_H_._HHH_b1_08665_0001_0000100007_0000001_0 (protein)
chain: SSSSDELERIYELLREVIELIKEGDDEEAEELMKELEELIREANSPVMEVLLRFLERELNSSSSS
B22: il10ra_site1_normal_mot_HHH_b1_06994_000000193_0001_40_55_H_._HHH_b1_07438_0001_0000400027_0000002_1 (protein)
chain: SSSSSDQEEELVEAALRLAKQIDDPEARELILLAAEIRAEELNNEELEELVEEVKQELKSSSSSS
B23: il10ra_site1_normal_mot_HHH_b1_03342_000000127_0001_23_39_H_._ems_3hM_582_0001_0000600024_0000001_1 (protein)
chain: SSTVEELAREAEEILEELAKLNPEYEWAARFWEHILRYAVERNDERAVRAVFHAVRALEEALSSS
B24: il10ra_site1_normal_mot_be5bd3f495b2ba9d9abb66d04d14a4bf_0001_000000065_0001_37_51_H_._HHH_b1_01400_0001_0000200014_0000001_0 (protein)
chain: SSSSDEELERLVEEVVEKFKLSEEAKRSLEYLAEHQLELGASEEEIERSLEAAARLLQMSESSSS
B25: il10ra_site1_sap_23_mot_HHH_b1_06914_000000280_0001_1_18_H_._HHH_b1_03421_0001_0000100007_0000001_0_0001 (protein)
chain: SSSSDEEERIEELLEEAEELAKNGNPREAAHVLQEALRLIFQLGNEELMELLWKLAKKLGSSSSS
B26: il10ra_site1_normal_mot_HHH_b2_06795_000000133_0001_42_56_H_._HHH_b2_06257_0001_0000200018_0000001_0 (protein)
chain: SSSSSDTEEELAELFLRVAKLREEGDEEEAKKLLEEIERLAEESNDERAKQAVRFLRQLLSSSSS
B27: il10ra_site1_normal_mot_ems_3hM_235_000000244_0001_46_64_H_._HHH_b2_04059_0001_0000100001_0000001_0 (protein)
chain: SSSSDVLEEVWELLREAAELEARGNPEEAREVLQEALELAEENNNELARFVVEHKLRALESSSSS
B28: il10ra_site1_normal_mot_HHH_b1_01879_000000050_0001_1_18_H_._HHH_b1_01715_0001_0000200014_0000001_1_af2pred_0001 (protein)
chain: SSSSSSEVEEAEEEARQLYEEGDPKKALQVLAKAIRLAQELNDEELLRRLLRLIVELVGSSSSSS
B29: il10ra_site1_normal_mot_HHH_b2_00612_000000251_0001_1_14_H_._HHH_b2_04981_0001_0000500049_0000001_0 (protein)
chain: SSSSDEEFEEVRRLLERASELANEGDKEEAERLVEEAIELAREGGNQLLTESAEYLLRIIRSSSS
B30: il10ra_site1_sap_17_mot_HHH_b2_00984_000000042_0001_1_20_H_._HHH_b2_04529_0001_0000500016_0000002_0_0001_af2pred_0001 (protein)
chain: SSSSDEEEREEEFLELLIEALKIEDEEEAREVLRELEELLEELGDERLLELVRNALRLNESSSSS
B31: il10ra_site1_sap_14_mot_HHH_b1_03314_af2_000000278_0001_42_55_H_._HHH_b1_00297_af2_0001_0000200014_0000002_0_0001_af2pred_dldesign_0_af2pred (protein)
chain: SSSSAAARAFARETCQRLYELKKAGDEAGFEAAYAEARARLAAMGDPEALRLLEVTYELLSSSSS
B32: il10ra_site1_sap_26_mot_HHH_b2_03346_af2_000000019_0001_1_18_H_._HHH_b2_06191_af2_0001_0000200016_0000001_0_0001 (protein)
chain: SSSSDERRQELLRLLREAIRLALRGNPEEAERLLEEAERLAEELGDERALEMIRRLLEAIRSSSS
B33: il10ra_site1_sap_23_mot_HHH_b1_03574_000000194_0001_1_18_H_._HHH_b1_05868_0001_0000200012_0000002_0_0001 (protein)
chain: SSSSSDRDELYELIEEALELLARGNPEEAERVLEEARELAEELGNRVFLVVIRFLLKDIKSSSSS
B34: il10ra_site1_normal_mot_HHH_b1_01879_000000050_0001_1_18_H_._HHH_b1_05693_af2_0001_0000500020_0000001_0_af2pred_0001 (protein)
chain: SSSSDEEEIEELQKEAEELRERGNPEEALLVLAQAIILAQRLGNEELAEELLELLIEIFRNSSSS
B35: il10ra_site1_sap_29_mot_HHH_b1_03859_af2_000000004_0001_44_57_H_._HHH_b2_05239_0001_0000100007_0000001_0_0001_af2pred_0001 (protein)
chain: SSSSDEQNERAVRIALRFAREIDDEEYVRLALRFARFSAEELNDPELRRLVEEAEEELEKSSSSS
B36: il10ra_site1_normal_mot_HHH_b2_01235_000000294_0001_1_18_H_._HHH_b2_01483_0001_0000200021_0000001_0 (protein)
chain: SSSSTEESERVYELLKRVSELDLEGNPEEAREVLEEAQEIAEEANNLVLLATIESLERLLDSSSS
B37: il10ra_site1_normal_mot_HHH_b1_06816_000000239_0001_1_19_H_._HHH_b2_02034_0001_0000100005_0000001_0_af2pred_0001 (protein)
chain: SSSSSSDLEEQAEELLEEVEKIDNPEERTRVARKAIKLAVRAGNPELAREIARIATRLSSSSSSS

Target: il10ra, Q13651
Assay: yeast display titration

Apparent Kd, inactive:
B1 no binding seen
B2 no binding seen
B3 no binding seen
B4 no binding seen
B5 no binding seen
B6 no binding seen
B7 no binding seen
B8 no binding seen
B9 no binding seen
B10 no binding seen
B11 no binding seen
B12 no binding seen
B13 no binding seen
B14 no binding seen
B15 no binding seen
B16 no binding seen
B17 no binding seen
B18 no binding seen
B19 no binding seen
B20 no binding seen
B21 no binding seen
B22 no binding seen
B23 no binding seen
B24 no binding seen
B25 no binding seen
B26 no binding seen
B27 no binding seen
B28 no binding seen
B29 no binding seen
B30 no binding seen
B31 no binding seen
B32 no binding seen
B33 no binding seen
B34 no binding seen
B35 no binding seen
B36 no binding seen
B37 no binding seen

Quoted at random: two entries already listed.
Apparent Kd, inactive:
B32 no binding seen
B25 no binding seen
